Results deposited as PubChem BioAssay AID1224828 (NIAID, 2016)
Assay: 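Knock-downs that increase or decrease LPS-induced p65 nuclear translocation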 (primary screen). System: mouse RAW264.7 G9 macrophage reporter cells (GFP-p65, Tnf promoter-mCherry). Knock-down reagent: siRNA pool against mouse genes, 100 nM. Time to read-out: 2 days siRNA transfection, then 40 min LPS before fixation. Conditions: LPS (Salmonella minnesota R595) at 10 ng/ml. Measurement: 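Microscopy ratio of nuclear to perinuclear-ring GFP-p65 signal, scaled to the plate median; gene score is the average of two replicate robust z-scores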. Direction: p65 translocation robust z-score: higher = more nuclear NF-kappaB p65 after LPS than the plate median; nuclear/cytoplasmic p65 ratio: higher = more nuclear NF-kappaB p65. Call rule: 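Called active when z exceeds 3.3 or falls under -1.56 (median of Tlr4 controls), giving activity score of at least 50; no calls for control wells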. Calls: active = hit (p65 shift raised or lowered); inactive = no clear change.
Here is one part, drawn at random, of about 17,000 reagents tested. 762 of them (4.5%) were called active. 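Active calls include both raised and lowered p65 entry, mostly lowered; wells with fewer than 50 cells lack a z-score.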 Raw values vary from plate to plate and are shown uncorrected. Reagents against one gene are numbered here.

gene knocked down | reagent | p65 translocation robust z-score | nuclear/cytoplasmic p65 ratio, rep 1 | nuclear/cytoplasmic p65 ratio, rep 2 | low cell count flag | call
Ndufaf1 | 1 | 0.28 | 1.82 | 1.64 | enough cells to score | inactive
Khdrbs1 | 1 | 1.18 | 1.6 | 1.56 | enough cells to score | inactive
Wdr26 | 1 | 1.68 | 1.59 | 1.44 | enough cells to score | inactive
Sharpin | 1 | – | 1.54 | 1.25 | fewer than 50 cells per well; well left out of scoring | inactive
Krt32 | 1 | 0.61 | 1.62 | 1.53 | enough cells to score | inactive
Rnf26 | 1 | – | 1.31 | 1.08 | fewer than 50 cells per well; well left out of scoring | inactive
Or8h8 | 1 | -0.69 | 1.57 | 1.46 | enough cells to score | inactive
Ppil1 | 1 | 0.97 | 1.61 | 1.56 | enough cells to score | inactive
Klc2 | 1 | -0.58 | 1.38 | 1.32 | enough cells to score | inactive
Edem3 | 1 | 1.44 | 1.74 | 1.91 | enough cells to score | inactive
Elmo2 | 1 | -0.29 | 1.39 | 1.36 | enough cells to score | inactive
Or5ae1 | 1 | -1.39 | 1.4 | 1.5 | enough cells to score | inactive
Or8k3 | 1 | 1.47 | 1.93 | 1.75 | enough cells to score | inactive
Papss1 | 1 | -1.33 | 1.61 | 1.21 | enough cells to score | inactive
Nsmf | 1 | -1.13 | 1.62 | 1.4 | enough cells to score | inactive
Hoxa3 | 1 | -0.79 | 1.58 | 1.38 | enough cells to score | inactive
Ift80 | 1 | – | 1.52 | 1.66 | fewer than 50 cells per well; well left out of scoring | inactive
Reg1 | 1 | -0.53 | 1.22 | 1.16 | enough cells to score | inactive
Cyp3a13 | 1 | -0.3 | 1.53 | 1.73 | enough cells to score | inactive
Rpe | 1 | 0.05 | 1.42 | 1.23 | enough cells to score | inactive
Bspry | 1 | – | 1.39 | 1.56 | fewer than 50 cells per well; well left out of scoring | inactive
Cdkn2c | 1 | 1.73 | 1.83 | 1.71 | enough cells to score | inactive
Grik3 | 1 | -0.64 | 1.38 | 1.26 | enough cells to score | inactive
Cldn16 | 1 | -0.63 | 1.43 | 1.3 | enough cells to score | inactive
Vax2 | 1 | -0.77 | 1.42 | 1.57 | enough cells to score | inactive
A930024E05Rik | 1 | -0.64 | 1.3 | 1.43 | enough cells to score | inactive
Zbtb8os | 1 | 0.38 | 1.55 | 1.68 | enough cells to score | inactive
H1f10 | 1 | 1.5 | 1.07 | 1.77 | enough cells to score | inactive
Csrp3 | 1 | -0.97 | 1.34 | 1.26 | enough cells to score | inactive
Atf5 | 1 | 0.7 | 1.84 | 1.61 | enough cells to score | inactive
Psmc4 | 1 | – | 1.51 | 1.26 | fewer than 50 cells per well; well left out of scoring | inactive
Atxn3 | 1 | -0.42 | 1.23 | 1.43 | enough cells to score | inactive
Calb1 | 1 | 0.13 | 1.6 | 1.66 | enough cells to score | inactive
Or5p67 | 1 | 0.97 | 1.35 | 1.38 | enough cells to score | inactive
Nsun7 | 1 | – | 1.24 | 1.36 | fewer than 50 cells per well; well left out of scoring | inactive
Amfr | 1 | -0.18 | 1.59 | 1.59 | enough cells to score | inactive
Ms4a6d | 1 | -0.37 | 1.82 | 1.46 | enough cells to score | inactive
Ms4a6d | 2 | -1.21 | 1.6 | 1.39 | enough cells to score | inactive
Lrrc56 | 1 | – | 1.12 | 1.38 | fewer than 50 cells per well; well left out of scoring | inactive
Brd7 | 1 | 0.05 | 1.65 | 1.6 | enough cells to score | inactive
Gpbp1 | 1 | 0.14 | 1.4 | 1.45 | enough cells to score | inactive
Bmf | 1 | – | 1.12 | 1.21 | fewer than 50 cells per well; well left out of scoring | inactive
Cd2 | 1 | 0.65 | 1.39 | 1.46 | enough cells to score | inactive
F10 | 1 | 0.21 | 1.54 | 1.36 | enough cells to score | inactive
Ldaf1 | 1 | -0.41 | 1.37 | 1.6 | enough cells to score | inactive
Ssc5d | 1 | 0.54 | 1.48 | 1.57 | enough cells to score | inactive
Mrpl22 | 1 | 0.01 | 1.84 | 1.55 | enough cells to score | inactive
Prodh2 | 1 | 1.06 | 1.61 | 1.57 | enough cells to score | inactive
Alox8 | 1 | 0.45 | 1.63 | 1.75 | enough cells to score | inactive
Zfp866 | 1 | -2.27 | 1.26 | 1.25 | enough cells to score | active
Zswim2 | 1 | – | 1.74 | 0.903 | fewer than 50 cells per well; well left out of scoring | inactive
Nr2f2 | 1 | – | 1.44 | 1.33 | fewer than 50 cells per well; well left out of scoring | inactive
Nr2f2 | 2 | -0.64 | 1.35 | 1.32 | enough cells to score | inactive
Ak9 | 1 | 0.29 | 1.36 | 1.41 | enough cells to score | inactive
Rapsn | 1 | -0.64 | 1.44 | 1.24 | enough cells to score | inactive
Glb1 | 1 | -0.7 | 1.33 | 1.29 | enough cells to score | inactive
Il17rd | 1 | – | 1.47 | 1.65 | fewer than 50 cells per well; well left out of scoring | inactive
Il17rd | 2 | – | 1.28 | 1.34 | fewer than 50 cells per well; well left out of scoring | inactive
Prmt5 | 1 | -1.51 | 1.34 | 1.36 | enough cells to score | inactive
